Reference: the supplement of paper PMC10849652
Some of the results follow.

The chains behind the UniProt entries cited, without tags or fusion partners. Where a name states a change or a piece, a line headed by the entry shows the natural chain unless it says otherwise.
UniProt Q9NZ72: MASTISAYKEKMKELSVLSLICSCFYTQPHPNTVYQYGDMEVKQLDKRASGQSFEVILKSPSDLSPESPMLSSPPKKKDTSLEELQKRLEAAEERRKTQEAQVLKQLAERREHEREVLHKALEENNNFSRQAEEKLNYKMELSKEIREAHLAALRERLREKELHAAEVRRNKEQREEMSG
UniProt P53597: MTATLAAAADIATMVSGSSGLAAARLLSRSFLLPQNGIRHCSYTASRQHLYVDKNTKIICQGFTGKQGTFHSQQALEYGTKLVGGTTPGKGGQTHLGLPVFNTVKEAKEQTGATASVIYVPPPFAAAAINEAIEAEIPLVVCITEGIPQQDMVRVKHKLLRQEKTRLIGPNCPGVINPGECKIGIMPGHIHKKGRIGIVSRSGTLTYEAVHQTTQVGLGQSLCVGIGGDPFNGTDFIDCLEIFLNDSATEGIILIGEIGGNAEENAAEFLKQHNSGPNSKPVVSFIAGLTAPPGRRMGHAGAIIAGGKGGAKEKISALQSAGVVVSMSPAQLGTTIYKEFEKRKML
UniProt Q92750: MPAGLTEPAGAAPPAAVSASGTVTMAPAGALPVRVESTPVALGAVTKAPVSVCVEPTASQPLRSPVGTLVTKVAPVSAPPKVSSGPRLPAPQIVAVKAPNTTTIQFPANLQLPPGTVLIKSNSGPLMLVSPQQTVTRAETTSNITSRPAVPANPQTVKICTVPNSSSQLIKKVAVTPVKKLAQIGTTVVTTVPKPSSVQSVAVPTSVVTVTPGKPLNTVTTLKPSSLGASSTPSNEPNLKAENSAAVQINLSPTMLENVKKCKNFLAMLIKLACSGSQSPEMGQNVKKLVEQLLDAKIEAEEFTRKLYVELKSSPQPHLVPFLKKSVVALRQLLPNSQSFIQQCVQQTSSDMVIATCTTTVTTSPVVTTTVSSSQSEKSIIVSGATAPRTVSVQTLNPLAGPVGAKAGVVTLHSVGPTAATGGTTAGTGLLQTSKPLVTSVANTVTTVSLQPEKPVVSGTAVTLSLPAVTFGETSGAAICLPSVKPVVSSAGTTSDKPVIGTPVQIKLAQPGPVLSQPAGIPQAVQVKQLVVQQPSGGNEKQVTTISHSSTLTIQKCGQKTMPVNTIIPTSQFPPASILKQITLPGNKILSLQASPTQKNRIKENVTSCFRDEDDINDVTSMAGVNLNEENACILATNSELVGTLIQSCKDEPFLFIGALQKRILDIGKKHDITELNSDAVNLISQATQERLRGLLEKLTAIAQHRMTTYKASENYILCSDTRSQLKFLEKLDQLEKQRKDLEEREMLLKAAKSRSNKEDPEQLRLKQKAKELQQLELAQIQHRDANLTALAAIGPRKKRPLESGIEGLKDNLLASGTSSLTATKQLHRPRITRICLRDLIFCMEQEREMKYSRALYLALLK
UniProt P08247, whole entry, looked up: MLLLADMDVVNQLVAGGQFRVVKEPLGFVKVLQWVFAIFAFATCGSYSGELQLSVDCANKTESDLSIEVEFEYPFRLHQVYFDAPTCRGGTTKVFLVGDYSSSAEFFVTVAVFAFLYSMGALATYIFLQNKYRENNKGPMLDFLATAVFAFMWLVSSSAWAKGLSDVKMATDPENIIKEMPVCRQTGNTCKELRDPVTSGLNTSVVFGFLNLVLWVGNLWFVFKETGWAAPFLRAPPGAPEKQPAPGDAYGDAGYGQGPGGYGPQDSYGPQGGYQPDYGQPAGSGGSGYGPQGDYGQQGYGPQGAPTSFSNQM
UniProt Q7Z422: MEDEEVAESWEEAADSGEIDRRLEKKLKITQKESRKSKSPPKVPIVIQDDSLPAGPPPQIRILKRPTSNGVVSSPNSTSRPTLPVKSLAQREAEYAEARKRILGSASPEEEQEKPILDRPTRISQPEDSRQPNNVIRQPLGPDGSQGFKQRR
UniProt Q86TM6, whole entry, looked up: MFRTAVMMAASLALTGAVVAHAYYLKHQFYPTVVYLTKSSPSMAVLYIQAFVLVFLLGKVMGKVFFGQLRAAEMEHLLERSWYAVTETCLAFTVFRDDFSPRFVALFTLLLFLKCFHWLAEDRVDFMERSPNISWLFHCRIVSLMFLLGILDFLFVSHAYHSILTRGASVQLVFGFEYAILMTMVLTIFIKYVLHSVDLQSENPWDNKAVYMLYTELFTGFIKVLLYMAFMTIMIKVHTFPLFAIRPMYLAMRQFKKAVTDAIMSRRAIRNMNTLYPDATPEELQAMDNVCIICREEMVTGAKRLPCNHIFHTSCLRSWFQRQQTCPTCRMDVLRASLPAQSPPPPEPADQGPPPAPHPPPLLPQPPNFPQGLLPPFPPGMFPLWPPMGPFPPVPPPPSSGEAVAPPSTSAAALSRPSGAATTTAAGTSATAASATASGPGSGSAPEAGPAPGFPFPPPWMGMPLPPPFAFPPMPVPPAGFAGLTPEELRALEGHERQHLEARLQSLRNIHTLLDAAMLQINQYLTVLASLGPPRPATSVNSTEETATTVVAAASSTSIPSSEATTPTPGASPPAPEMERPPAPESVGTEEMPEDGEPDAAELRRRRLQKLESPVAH
UniProt Q93045: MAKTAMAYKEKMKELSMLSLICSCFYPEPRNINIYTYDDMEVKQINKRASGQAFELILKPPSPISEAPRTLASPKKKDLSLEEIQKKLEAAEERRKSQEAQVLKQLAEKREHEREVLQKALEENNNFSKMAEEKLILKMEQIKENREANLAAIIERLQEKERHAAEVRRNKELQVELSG
UniProt O15260: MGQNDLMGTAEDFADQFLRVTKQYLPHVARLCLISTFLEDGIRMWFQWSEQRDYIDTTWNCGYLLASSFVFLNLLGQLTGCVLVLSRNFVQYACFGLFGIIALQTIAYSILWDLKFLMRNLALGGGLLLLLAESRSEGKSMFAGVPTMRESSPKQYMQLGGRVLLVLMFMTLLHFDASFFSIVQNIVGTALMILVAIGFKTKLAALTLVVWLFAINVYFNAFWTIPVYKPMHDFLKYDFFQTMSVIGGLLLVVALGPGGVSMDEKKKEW
UniProt P57105: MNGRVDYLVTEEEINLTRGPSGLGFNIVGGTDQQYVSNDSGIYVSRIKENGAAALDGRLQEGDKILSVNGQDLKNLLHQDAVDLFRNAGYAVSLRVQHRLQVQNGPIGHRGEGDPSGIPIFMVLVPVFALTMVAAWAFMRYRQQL
UniProt Q8NBK3: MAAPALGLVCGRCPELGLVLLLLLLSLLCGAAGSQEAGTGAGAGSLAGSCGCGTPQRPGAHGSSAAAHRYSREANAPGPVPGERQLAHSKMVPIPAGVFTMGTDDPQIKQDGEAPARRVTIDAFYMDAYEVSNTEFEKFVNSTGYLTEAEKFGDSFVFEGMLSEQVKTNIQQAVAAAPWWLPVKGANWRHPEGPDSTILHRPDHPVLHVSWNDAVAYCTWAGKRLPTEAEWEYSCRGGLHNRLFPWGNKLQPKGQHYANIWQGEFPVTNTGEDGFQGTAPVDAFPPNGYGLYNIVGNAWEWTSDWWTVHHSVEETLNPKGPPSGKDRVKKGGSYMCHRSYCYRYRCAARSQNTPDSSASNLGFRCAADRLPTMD
UniProt Q15572: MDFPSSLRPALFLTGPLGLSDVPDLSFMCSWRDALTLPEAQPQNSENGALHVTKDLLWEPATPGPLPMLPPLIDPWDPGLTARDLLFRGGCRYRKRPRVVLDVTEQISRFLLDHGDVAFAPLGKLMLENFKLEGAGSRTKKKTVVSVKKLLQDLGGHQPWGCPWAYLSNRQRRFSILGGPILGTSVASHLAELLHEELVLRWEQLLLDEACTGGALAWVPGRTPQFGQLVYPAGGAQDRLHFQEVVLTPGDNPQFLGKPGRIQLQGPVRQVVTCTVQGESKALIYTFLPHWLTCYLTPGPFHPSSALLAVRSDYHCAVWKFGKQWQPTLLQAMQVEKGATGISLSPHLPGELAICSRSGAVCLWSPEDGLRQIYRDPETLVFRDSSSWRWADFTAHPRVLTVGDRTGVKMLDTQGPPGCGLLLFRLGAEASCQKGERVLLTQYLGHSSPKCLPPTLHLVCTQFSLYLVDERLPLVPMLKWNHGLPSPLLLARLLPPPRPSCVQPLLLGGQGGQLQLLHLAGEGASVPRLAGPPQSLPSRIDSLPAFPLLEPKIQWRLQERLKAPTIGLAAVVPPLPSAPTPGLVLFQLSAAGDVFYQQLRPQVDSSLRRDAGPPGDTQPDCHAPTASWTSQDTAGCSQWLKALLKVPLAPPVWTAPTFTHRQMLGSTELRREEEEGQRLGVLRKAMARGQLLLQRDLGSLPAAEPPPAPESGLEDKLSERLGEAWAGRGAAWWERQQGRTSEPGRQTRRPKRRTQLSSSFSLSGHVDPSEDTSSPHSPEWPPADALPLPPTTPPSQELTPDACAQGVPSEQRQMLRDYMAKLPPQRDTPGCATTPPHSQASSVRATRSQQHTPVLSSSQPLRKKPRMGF
UniProt Q9NYJ8: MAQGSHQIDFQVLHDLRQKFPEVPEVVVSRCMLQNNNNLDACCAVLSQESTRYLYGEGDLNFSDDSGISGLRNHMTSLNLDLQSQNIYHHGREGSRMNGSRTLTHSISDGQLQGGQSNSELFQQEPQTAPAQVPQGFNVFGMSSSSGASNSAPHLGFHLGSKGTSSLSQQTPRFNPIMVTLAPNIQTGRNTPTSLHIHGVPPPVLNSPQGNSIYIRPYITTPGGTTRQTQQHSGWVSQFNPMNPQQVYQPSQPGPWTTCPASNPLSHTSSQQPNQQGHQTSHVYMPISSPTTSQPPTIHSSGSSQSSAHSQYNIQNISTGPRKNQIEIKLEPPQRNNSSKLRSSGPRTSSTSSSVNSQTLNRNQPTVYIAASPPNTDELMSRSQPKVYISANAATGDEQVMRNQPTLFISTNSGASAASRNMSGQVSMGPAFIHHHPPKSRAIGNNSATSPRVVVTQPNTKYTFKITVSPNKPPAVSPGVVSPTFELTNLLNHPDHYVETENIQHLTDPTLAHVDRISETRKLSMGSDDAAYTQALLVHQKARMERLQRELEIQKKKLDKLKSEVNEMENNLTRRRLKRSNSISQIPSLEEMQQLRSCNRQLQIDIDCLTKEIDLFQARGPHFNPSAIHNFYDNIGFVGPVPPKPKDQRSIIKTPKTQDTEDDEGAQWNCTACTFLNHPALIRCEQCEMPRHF
UniProt Q13190: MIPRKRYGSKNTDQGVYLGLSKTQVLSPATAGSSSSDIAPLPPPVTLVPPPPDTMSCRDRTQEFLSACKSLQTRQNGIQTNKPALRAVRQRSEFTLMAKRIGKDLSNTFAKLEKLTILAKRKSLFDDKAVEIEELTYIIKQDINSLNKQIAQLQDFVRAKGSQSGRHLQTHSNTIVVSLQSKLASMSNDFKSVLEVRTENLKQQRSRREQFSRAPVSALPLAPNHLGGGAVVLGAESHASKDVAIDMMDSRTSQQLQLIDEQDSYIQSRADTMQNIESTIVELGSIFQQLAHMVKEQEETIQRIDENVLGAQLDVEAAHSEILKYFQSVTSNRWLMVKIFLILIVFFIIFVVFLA
UniProt O43815: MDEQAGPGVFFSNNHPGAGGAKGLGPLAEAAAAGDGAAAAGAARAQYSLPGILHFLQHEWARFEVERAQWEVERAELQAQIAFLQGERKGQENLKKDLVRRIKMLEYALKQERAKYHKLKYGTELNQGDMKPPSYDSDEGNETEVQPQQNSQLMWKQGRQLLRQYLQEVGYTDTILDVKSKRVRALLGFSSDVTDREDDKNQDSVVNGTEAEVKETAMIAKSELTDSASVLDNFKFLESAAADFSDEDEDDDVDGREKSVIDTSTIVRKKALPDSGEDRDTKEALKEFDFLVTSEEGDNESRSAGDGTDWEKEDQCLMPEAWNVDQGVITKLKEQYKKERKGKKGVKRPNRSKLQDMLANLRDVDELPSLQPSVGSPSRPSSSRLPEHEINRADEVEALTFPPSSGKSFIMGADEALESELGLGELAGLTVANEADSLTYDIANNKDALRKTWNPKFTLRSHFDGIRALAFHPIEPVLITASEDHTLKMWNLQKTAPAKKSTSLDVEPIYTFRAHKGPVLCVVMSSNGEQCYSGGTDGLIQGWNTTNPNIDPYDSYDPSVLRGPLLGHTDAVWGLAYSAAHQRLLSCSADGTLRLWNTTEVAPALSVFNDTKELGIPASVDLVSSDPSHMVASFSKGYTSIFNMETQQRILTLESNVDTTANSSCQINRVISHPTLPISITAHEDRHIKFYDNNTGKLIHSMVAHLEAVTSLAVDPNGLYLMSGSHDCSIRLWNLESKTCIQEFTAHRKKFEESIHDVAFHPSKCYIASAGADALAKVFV
UniProt Q9H169: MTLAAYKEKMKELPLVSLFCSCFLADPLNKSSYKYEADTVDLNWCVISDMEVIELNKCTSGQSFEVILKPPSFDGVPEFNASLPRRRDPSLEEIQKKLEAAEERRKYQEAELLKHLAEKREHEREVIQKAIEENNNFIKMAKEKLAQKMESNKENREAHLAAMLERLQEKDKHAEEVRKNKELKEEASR
UniProt Q16563: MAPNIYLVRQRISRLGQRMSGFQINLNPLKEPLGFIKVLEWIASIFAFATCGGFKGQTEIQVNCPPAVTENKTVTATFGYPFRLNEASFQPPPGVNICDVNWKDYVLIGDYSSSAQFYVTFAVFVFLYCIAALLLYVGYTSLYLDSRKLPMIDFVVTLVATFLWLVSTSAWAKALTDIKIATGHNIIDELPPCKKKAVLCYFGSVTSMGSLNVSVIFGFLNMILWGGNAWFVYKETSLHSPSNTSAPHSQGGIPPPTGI

Tests used:
Assay in all cases: log2 fold change, soluble protein after heating vs DMSO (PISA); higher = thermal stabilisation; K562 lysate, 10 uM; active = over 0.2 and 3.5 SD of the protein, either way, in both replicates (recomputed)
[1] = compound: C1=CC=C(C=C1)[C@H](COC2=CC3=C(C=C2)NC(=O)N3)NC(=O)C4=CC=CN(C4=O)CC5=CC(=C(C=C5)F)F
In short: (§1)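 K562 pellets were dounce-homogenised in PBS pH 7.4 containing 1 mM MgCl2, and the crude extract, at 1 mg/mL protein, was exposed to 10 μM compound for 30 min. Aliquots were heated for 3 min across 48°C-58°C, pooled, brought to 0.5% NP-40 at 4°C and spun at 21,000xg for 90 min, with the supernatant taken as soluble protein. TMTpro 16plex LC-MS/MS with equalised channel sums quantified that protein. Values are log-two fold changes in thermal stability relative to solvent controls, taken from duplicates.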

[2] = compound: CC1=C(SC2=C1C(=N[C@H](C3=NN=C(N32)C)CC(=O)N)C4=CC=C(C=C4)Cl)C
In short: as §1

[3] = compound: CC1=C2C(=CC=C1)N=C(N(C2=O)C3=CC=CC=C3C)CN4C=NC5=C(N=CN=C54)N
In short: as §1

[4] = compound: Cc1sc2c(c1C)C(c1ccc(Cl)cc1)=N[C@@H](CC(=O)OC(C)(C)C)c1nnc(C)n1-2
In short: as §1

[5] = compound: c1ccc([C@@H]2C[C@H]2NC2CCNCC2)cc1
In short: as §1

Measured: log2 fold change

STMN3 (UniProt Q9NZ72)
inactive: [1] 0.046 | [2] -0.053 | [3] 0.065 | [4] -0.061

SUCLG1 (UniProt P53597)
inactive: [1] 0.044 | [2] 0.021 | [3] 0.011 | [4] -0.012 | [5] 0.08

TAF4B (UniProt Q92750)
inactive: [1] 0.037 | [2] -0.064 | [3] 0.022 | [4] -0.166 | [5] -0.149

STK11IP (UniProt Q8N1F8)
inactive: [1] 0.002 | [2] 0.072 | [3] 0.019 | [4] 0.019 | [5] 0.015

SYP (UniProt P08247)
inactive: [1] -0.086 | [2] 0.009 | [3] 0.034 | [4] -0.08 | [5] -0.082

TAF15 (UniProt Q92804)
inactive: [1] 0.024 | [2] 0.004 | [3] -0.019 | [4] -0.021 | [5] 0.008

SZRD1 (UniProt Q7Z422)
inactive: [1] -0.003 | [2] 0.018 | [3] -0.008 | [4] -0.02 | [5] -0.039

TACC1 (UniProt O75410)
inactive: [1] -0.062 | [2] -0.017 | [3] 0.02 | [4] 0.068 | [5] -0.023

SYVN1 (UniProt Q86TM6)
inactive: [1] -0.034 | [2] -0.075 | [3] 0.022 | [4] -0.034 | [5] 0.051

SVIP (UniProt Q8NHG7)
inactive: [1] 0.02 | [2] -0.048 | [3] -0.052 | [4] -0.069 | [5] -0.028

STX7 (UniProt O15400)
inactive: [1] 0.032 | [2] 0.008 | [3] -0.019 | [4] 0.006 | [5] -0.008

SYNJ2BP-COX16, A0A087WYV9
inactive: [1] 0.125 | [2] -0.012 | [3] -0.024 | [4] 0.092 | [5] 0.102

STMN2 isoform 2 (UniProt Q93045)
inactive: [1] -0.057 | [2] -0.026 | [3] -0.058 | [4] 0.04 | [5] -0.029

SUCLG2 (UniProt Q96I99)
inactive: [1] 0.016 | [2] 0.049 | [3] 0.019 | [4] 0.033 | [5] 0.036

SURF4 (UniProt O15260)
inactive: [1] -0.032 | [2] -0.014 | [3] 0.041 | [4] -0.065 | [5] -0.11

SURF6 (UniProt O75683)
inactive: [1] -0.002 | [2] 0.024 | [3] -0.003 | [4] 0.007 | [5] -0.004

SYNJ2BP (UniProt P57105)
inactive: [1] 0.125 | [2] -0.294 | [3] -0.007 | [4] 0.026

STK25 (UniProt O00506)
inactive: [1] -0.05 | [2] 0.035 | [3] -0.062 | [4] 0.053 | [5] -0.048

SUMF1 (UniProt Q8NBK3)
inactive: [1] -0.034 | [2] 0.004 | [3] 0.015 | [4] -0.044 | [5] -0.026

TAF1C (UniProt Q15572)
inactive: [1] -0.076 | [2] 0.072 | [3] -0.032 | [4] -0.044 | [5] 0.032

TAB2 (UniProt Q9NYJ8)
inactive: [1] 0.018 | [2] 0.009 | [3] 0.025 | [4] 0.028 | [5] -0.007

STXBP3 (UniProt O00186)
inactive: [1] -0.03 | [2] -0.046 | [3] 0.011 | [4] -0.026 | [5] 0.015

STRIP2 (UniProt Q9ULQ0)
inactive: [1] -0.009 | [2] 0.013 | [3] 0.027 | [4] -0.006 | [5] 0

Reprinted from the results shown (two entries):
SYNJ2BP (UniProt P57105)
inactive: [1] 0.125 | [2] -0.294 | [3] -0.007 | [4] 0.026

STK25 (UniProt O00506)
inactive: [1] -0.05 | [2] 0.035 | [3] -0.062 | [4] 0.053 | [5] -0.048

Following part

STX5 (UniProt Q13190)
inactive: [1] -0.04 | [2] 0.036 | [3] -0.024 | [4] 0.018 | [5] -0.001

STRN (UniProt O43815)
inactive: [1] 0.009 | [2] 0.012 | [3] 0.006 | [4] 0.017 | [5] 0.022

SUMO3 isoform 2 (UniProt P55854)
inactive: [1] 0.016 | [2] -0.016 | [3] 0.003 | [4] -0.028 | [5] -0.026

STMN4 isoform 2 (UniProt Q9H169)
inactive: [1] -0.005 | [2] 0.031 | [3] -0.041 | [4] 0.029 | [5] 0.055

SYPL1 (UniProt Q16563)
inactive: [1] -0.075 | [2] 0.003 | [3] -0.01 | [4] -0.041 | [5] -0.123
